Our source for the binding values is US20220389120A1.

Sequences of proteins named here, by UniProt entry; tags and fusion partners are left off. Residues count along the entry.
UniProt O15123, residues 19-496: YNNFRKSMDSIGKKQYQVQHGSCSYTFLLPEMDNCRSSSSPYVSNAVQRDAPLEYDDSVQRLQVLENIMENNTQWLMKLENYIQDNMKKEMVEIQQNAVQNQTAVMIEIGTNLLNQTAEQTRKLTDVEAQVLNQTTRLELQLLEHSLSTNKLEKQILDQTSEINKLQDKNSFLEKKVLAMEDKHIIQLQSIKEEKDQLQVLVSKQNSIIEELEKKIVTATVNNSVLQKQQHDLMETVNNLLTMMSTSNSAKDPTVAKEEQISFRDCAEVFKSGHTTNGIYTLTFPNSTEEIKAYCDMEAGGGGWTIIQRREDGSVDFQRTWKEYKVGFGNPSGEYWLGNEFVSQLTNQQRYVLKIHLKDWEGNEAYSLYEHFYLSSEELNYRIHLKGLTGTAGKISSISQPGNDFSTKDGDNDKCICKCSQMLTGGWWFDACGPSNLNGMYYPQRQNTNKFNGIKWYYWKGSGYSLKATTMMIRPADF

The test addresses recombinant human Ang2 (Biolegend) (human) (UniProt O15123). Kind of test: Tie2-Ang2 blocking ELISA. (ELISA stands for enzyme-linked immunosorbent assay.)

Results are given in words; binding and its absence hold for the method and conditions named. Some results given as binding are weak or reduced against the parent protein; the word gives no strength.

B1: Bi-ZTO (Fc fusion)
chain: SDTGRPFVEMYSEIPEIIHMTEGRELVIPCRVTSPNITVTLKKFPLDTLIPDGKRIIWDSRKGFIISNATYKEIGLLTCEATVNGHLYKTNYLTHRQTNTIIDVVLSPSHGIELSVGEKLVLNCTARTELNVGIDFNWEYPSSKHQHKKLVNRDLKTQSGSEMKKFLSTLTIDGVTRSDQGLYTCAASSGLMTKKNSTFVRVHEKESKYGPPCPPCPAPEFLGGPSVFLFPPKPKDTLMISRTPEVTCVVVDVSQEDPEVQFNWYVDGVEVHNAKTKPREEQFNSTYRVVSVLTVLHQDWLNGKEYKCKVSNKGLPSSIEKTISKAKGQPREPQVYTLPPSQEEMGGAQQEECEWDPWTCEHMGSGSATGGSGSTASSGSGSATHQEECEWDPWTCEHMGGTKNQVSLTCLVKGFYPSDIAVEWESNGQPENNYKTTPPVLDSDGSFFLYSRLTVDKSRWQEGNVFSCSVMHEALHNHYTQKSLSLSLGK
For B1, the binding entry is recorded as “binds”.
